Measurements published in PMC7195466, “A common allosteric mechanism regulates homeostatic inactivation of auxin and gibberellin” (Nature Communications, 2020).
No constants are given. Whether binding was seen depends on the method and setting. For part of these data: In cells and extracts the contact can be indirect. Some results given as binding are weak or reduced against the parent protein; the word gives no strength.

Sequences of proteins named here, by UniProt entry; tags and fusion partners are left off. A change or cut given only in a name is not applied to a line headed by its entry.
UniProt Q8S0S6: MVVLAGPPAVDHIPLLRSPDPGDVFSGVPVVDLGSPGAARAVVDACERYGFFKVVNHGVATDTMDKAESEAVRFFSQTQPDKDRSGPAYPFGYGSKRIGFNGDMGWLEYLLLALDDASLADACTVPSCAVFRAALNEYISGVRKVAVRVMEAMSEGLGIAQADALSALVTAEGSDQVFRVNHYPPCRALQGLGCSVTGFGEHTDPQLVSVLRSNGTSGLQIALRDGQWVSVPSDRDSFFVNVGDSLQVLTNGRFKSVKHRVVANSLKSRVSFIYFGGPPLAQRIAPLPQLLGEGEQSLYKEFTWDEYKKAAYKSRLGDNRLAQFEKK

What was measured:
[1] = biological target: OsGA2ox3 3Mu (C194A, K308A, K313A) fused with N- or C-YFP (BiFC) (rice (Oryza sativa)) (UniProt Q8S0S6); assay: split reporter; BiFC: N-YFP and C-YFP fusions expressed together in rice T65 mesophyll protoplasts; confocal microscopy
[2] = biological target: OsGA2ox3 triple mutant C194A, K308A, K313A (3Mu) (rice (Oryza sativa)) (UniProt Q8S0S6); assay: SEC; purified monomer incubated at 10 mg/ml, 25 °C, 18 h in buffer C (pH 7.4) with 10 mM GA4; Superdex 200 10/300GL, eluted with buffer C + 1 mM GA4 at 4 °C; both purified
[3] = biological target: Oryza sativa gibberellin 2-oxidase 3 (OsGA2ox3), wild type (rice (Oryza sativa)) (UniProt Q8S0S6); assay: SEC; OsGA2ox3 purified in the absence of GA4; gel filtration without GA4; both purified

Substance: OsGA2ox3 3Mu (C194A, K308A, K313A) fused with N- or C-YFP (BiFC) (from UniProt Q8S0S6 1-327) (enzyme)
- binding [1]: no binding

Substance: OsGA2ox3 triple mutant C194A, K308A, K313A (3Mu) (from UniProt Q8S0S6 1-327) (enzyme)
- binding [2]: no binding (tested: 10 mg/ml (with 10 mM GA4))

Substance: Oryza sativa gibberellin 2-oxidase 3 (OsGA2ox3), wild type (from UniProt Q8S0S6 1-327) (enzyme)
- binding [3]: binds weakly
